About 5,400 (1.8%) of roughly 300,000 compounds were called active. Inconclusive results, whose numbers are uncertain, are shown with a selection of clear calls. Calls follow the shape of the full dose curve; tested in HEK293 cells. Potencies beside an inconclusive call are fits to weak or partial responses and may not hold up.
Assay: qHTS for inhibitors of binding or entry into cells for Marburg Virus
Conditions: Marburg virus pseudotyped entry inhibition, cell reporter; activity change, negative = inhibition: at 37.8 µM (top of the series) unless noted
For `O=C(Nc1cccc(NC(=O)c2ccc(Cl)cc2Cl)c1)c1cccnc1`, the Potency was inconclusive: 11.2 µM [inhibitor, partial curve, poor fit]. For `CSc1nc(-c2ccc(Cl)cc2)nn1S(=O)(=O)c1ccccc1`, the Potency was inconclusive: 11.2 µM [activator, partial curve, poor fit]. In the case of `CCSc1nnc(-c2ccc(S(=O)(=O)N3CCOCC3)cc2)n1CC1CCCO1` (stereo not drawn), the Potency is reported as inconclusive: 1.3 µM [activator, single point]. In the case of `COc1ccc(-c2cn3ccccc3n2)cc1[N+](=O)[O-]`, the Potency is reported as inconclusive: 11.2 µM [inhibitor, partial curve, poor fit]. In the case of `CCOC(=O)Cc1csc(SCC(=O)c2c(N)n(CC(C)C)c(=O)n(C)c2=O)n1`, the Potency is reported as inconclusive: 18.3 µM [inhibitor, single point]. In the case of `Cc1csc(NC(=O)CSc2nnc3ncccn23)n1`, the Potency is reported as “inactive”. For `CN(CC(=O)Nc1ccc(Cl)cc1)C(=O)c1ccc(NS(=O)(=O)c2ccc3[nH]c(=O)[nH]c3c2)cc1`, the Potency was “inactive”. In the case of `CCCCCCn1c(CN2CCCCC2C)nc2c1c(=O)n(C)c(=O)n2C` (stereo not drawn), the Potency is reported as inconclusive: 20.6 µM [inhibitor, single point]. In the case of `Cc1ccc(C(=O)C(=S)N2CCOCC2)cc1`, the Potency is reported as inconclusive: 1.26 µM [activator, single point]. With `Cc1ccc(Cl)cc1N1CCN(C(=O)C2CCN(S(=O)(=O)c3cccnc3)CC2)CC1` the Potency was inconclusive: 35.5 µM [inhibitor, partial curve, poor fit]. With `CCCc1[nH]n(-c2ccc(F)cc2)c(=O)c1C=Nc1cccc(F)c1` the Potency was inconclusive: 6.51 µM [inhibitor, single point]. For `Cc1ccccc1CNC(=O)CCNS(=O)(=O)c1ccc(OC(F)(F)F)cc1`, the Potency was “inactive”. For `O=C(N/N=C/c1ccccn1)c1ccc(Br)cc1`, the Potency was inconclusive: 20 µM [inhibitor, single point]. For `COC1=C[C@H](C(=O)NCc2ccc(OC)cc2)C(C)C(c2ccccc2)CC1=O` (stereo partly drawn), the Potency was “inactive”. For `CCOC(=O)c1c(NC(=O)CSc2nnc(-c3cccc(C)c3)n2CC)sc(C(C)=O)c1C`, the Potency was inconclusive: 35.5 µM [inhibitor, single point]. For `CCc1ccc(NC(=O)CN2C(=O)C(c3ccc(F)cc3)=NC2(C)C)cc1`, the Potency was “inactive”. For `CN(C)S(=O)(=O)c1ccc(Nc2nc(C3CC3)nc3c2nnn3Cc2ccccc2Cl)cc1`, the Potency was “inactive”. For `Cc1cccc(NC(=O)c2ccc(Cl)c(S(=O)(=O)N3CCCC3)c2)n1`, the Potency was inconclusive: 3.98 µM [activator, single point]. With `O=C(CN1C(=O)NC2(CCCCC2)C1=O)Nc1ccc(N2CCOCC2)cc1` the Potency was inconclusive: 3.98 µM [activator, full curve, poor fit]. In the case of `CCCN1C(=O)c2ccc(C(=O)Nc3ccccc3C(=O)O)cc2C1=O`, the Potency is reported as inconclusive: 5.62 µM [activator, single point]. For `CC(NC(=O)C1C(=O)N(CCO)C2(C)CC1c1ccccc1O2)c1ccccc1` (stereo not drawn), the Potency was inconclusive: 0.291 µM [activator, partial curve, poor fit]. In the case of `CC1=C(C(=O)Nc2cccnc2)C(c2ccccc2)n2nc(SCc3ccccc3Cl)nc2N1` (stereo not drawn), the Potency is reported as inconclusive: 2.51 µM [inhibitor, partial curve, poor fit]. With `Cc1c(O)nc(SC2CC(=O)N(c3cc(Cl)cc(Cl)c3)C2=O)[nH]c1=O` (stereo not drawn) the activity change, negative = inhibition was inconclusive: 6.24% [activator]. With `CC(C)(C)c1ccccc1OCC(=O)Nc1ccccc1C(=O)NCc1cccnc1` the Potency was inconclusive: 12.6 µM [inhibitor, partial curve, poor fit]. In the case of `CCc1ccc(NC(=O)C/C(C)=N/NC(=O)OCc2ccc(OC)cc2)cc1`, the Potency is reported as “inactive”. For `COc1ccc(C(=O)NC(=S)NC(C)c2ccccc2)cc1` (stereo not drawn), the Potency was “inactive”. With `Cc1cc(-c2n[nH]c(=S)n2Cc2ccco2)n(C)n1` the Potency was inconclusive: 12.6 µM [activator, single point]. With `CC(=O)Nc1ccc(NC(=O)c2c(C)c(-c3ccccc3)nc3ccccc23)cc1` the Potency was “inactive”. With `O=C(NCc1ccccn1)c1coc(=O)c(Br)c1` the Potency was “inactive”. With `COc1cc(OC)cc(C(=O)Nc2ccn(C)n2)c1` the Potency was inconclusive: 10 µM [activator, partial curve, poor fit]. In the case of `Cc1ccc(NC(=S)N2CCN(S(=O)(=O)c3ccc(C)cc3)CC2)cc1`, the Potency is reported as inconclusive: 35.5 µM [inhibitor, single point]. For `COc1ccccc1N1CCN(c2ccnc3cc(Cl)ccc23)CC1`, the Potency was inconclusive: 1.26 µM [inhibitor, full curve, poor fit]. In the case of `CCc1ccc(NC(=O)C2CCCCC2C(=O)O)cc1` (stereo not drawn), the Potency is reported as “inactive”. For `O=C(CN(Cc1ccco1)C(=O)CNS(=O)(=O)c1ccc(Cl)cc1)NCC1CCCO1` (stereo not drawn), the Potency was “inactive”. For `COc1ccc(Cc2nnc(NC(=O)C(C)(C)C)s2)cc1`, the Potency was “inactive”. In the case of `CCOC(=O)CC(=O)CSc1ccc2nnc(-c3cccc(F)c3)n2n1`, the Potency is reported as “inactive”. With `CCCCNC(=O)c1cc2c(=O)n3cccc(C)c3nc2n(Cc2ccccc2)c1=N` the Potency was inconclusive: 20.6 µM [inhibitor, partial curve, poor fit]. With `O=C(NC1CCCC1)C(c1ccccc1)N(Cc1ccc2c(c1)OCO2)C(=O)Cc1cccs1` (stereo not drawn) the Potency was inconclusive: 22.4 µM [inhibitor, partial curve, poor fit]. In the case of `CC(=O)Nc1ccc(NC(=O)c2ccccc2Sc2ccc([N+](=O)[O-])cc2Cl)cc1`, the Potency is reported as inconclusive: 22.4 µM [inhibitor, single point]. In the case of `COc1ccc(Cn2c(CCC(=O)Nc3ccc(C)c(C)c3)nc3cccnc32)cc1`, the Potency is reported as inconclusive: 18.3 µM [inhibitor, partial curve, poor fit]. In the case of `O=C(NNC(=O)C1CC1)c1cc(=O)[nH]c2ccccc12`, the Potency is reported as inconclusive: 5.62 µM [inhibitor, single point]. For `COC(=O)c1ccc(NC(=O)c2ccccc2N(C)S(=O)(=O)c2ccccc2)cc1`, the Potency was “inactive”. For `CC(=O)NS(=O)(=O)c1ccc(NC(=O)/C=C/c2ccc(C)o2)cc1`, the Potency was “inactive”.

Source: PubChem BioAssay AID540276 (National Center for Advancing Translational Sciences (NCATS), 2011)
% is scaled to controls: 0 for no effect and ±100 for the full control effect; potency is read from the fitted curve at half-maximal effect.
